Experimental data: article PMC7687062
No constants are given. Whether binding was seen depends on the method and setting. In cells and extracts the contact can be indirect. Some entries that bind do so weakly or less than the wild type. For some assays here: Where a sequence is shown, tags or fusion partners need not be part of it. Each block holds one molecule with its values, some of them ahead of it.

By UniProt entry, the sequences of proteins in these tests, tags left out. Where a name states a change or a piece, a line headed by the entry shows the natural chain unless it says otherwise. Residues count along the entry.
UniProt E9Q4K7: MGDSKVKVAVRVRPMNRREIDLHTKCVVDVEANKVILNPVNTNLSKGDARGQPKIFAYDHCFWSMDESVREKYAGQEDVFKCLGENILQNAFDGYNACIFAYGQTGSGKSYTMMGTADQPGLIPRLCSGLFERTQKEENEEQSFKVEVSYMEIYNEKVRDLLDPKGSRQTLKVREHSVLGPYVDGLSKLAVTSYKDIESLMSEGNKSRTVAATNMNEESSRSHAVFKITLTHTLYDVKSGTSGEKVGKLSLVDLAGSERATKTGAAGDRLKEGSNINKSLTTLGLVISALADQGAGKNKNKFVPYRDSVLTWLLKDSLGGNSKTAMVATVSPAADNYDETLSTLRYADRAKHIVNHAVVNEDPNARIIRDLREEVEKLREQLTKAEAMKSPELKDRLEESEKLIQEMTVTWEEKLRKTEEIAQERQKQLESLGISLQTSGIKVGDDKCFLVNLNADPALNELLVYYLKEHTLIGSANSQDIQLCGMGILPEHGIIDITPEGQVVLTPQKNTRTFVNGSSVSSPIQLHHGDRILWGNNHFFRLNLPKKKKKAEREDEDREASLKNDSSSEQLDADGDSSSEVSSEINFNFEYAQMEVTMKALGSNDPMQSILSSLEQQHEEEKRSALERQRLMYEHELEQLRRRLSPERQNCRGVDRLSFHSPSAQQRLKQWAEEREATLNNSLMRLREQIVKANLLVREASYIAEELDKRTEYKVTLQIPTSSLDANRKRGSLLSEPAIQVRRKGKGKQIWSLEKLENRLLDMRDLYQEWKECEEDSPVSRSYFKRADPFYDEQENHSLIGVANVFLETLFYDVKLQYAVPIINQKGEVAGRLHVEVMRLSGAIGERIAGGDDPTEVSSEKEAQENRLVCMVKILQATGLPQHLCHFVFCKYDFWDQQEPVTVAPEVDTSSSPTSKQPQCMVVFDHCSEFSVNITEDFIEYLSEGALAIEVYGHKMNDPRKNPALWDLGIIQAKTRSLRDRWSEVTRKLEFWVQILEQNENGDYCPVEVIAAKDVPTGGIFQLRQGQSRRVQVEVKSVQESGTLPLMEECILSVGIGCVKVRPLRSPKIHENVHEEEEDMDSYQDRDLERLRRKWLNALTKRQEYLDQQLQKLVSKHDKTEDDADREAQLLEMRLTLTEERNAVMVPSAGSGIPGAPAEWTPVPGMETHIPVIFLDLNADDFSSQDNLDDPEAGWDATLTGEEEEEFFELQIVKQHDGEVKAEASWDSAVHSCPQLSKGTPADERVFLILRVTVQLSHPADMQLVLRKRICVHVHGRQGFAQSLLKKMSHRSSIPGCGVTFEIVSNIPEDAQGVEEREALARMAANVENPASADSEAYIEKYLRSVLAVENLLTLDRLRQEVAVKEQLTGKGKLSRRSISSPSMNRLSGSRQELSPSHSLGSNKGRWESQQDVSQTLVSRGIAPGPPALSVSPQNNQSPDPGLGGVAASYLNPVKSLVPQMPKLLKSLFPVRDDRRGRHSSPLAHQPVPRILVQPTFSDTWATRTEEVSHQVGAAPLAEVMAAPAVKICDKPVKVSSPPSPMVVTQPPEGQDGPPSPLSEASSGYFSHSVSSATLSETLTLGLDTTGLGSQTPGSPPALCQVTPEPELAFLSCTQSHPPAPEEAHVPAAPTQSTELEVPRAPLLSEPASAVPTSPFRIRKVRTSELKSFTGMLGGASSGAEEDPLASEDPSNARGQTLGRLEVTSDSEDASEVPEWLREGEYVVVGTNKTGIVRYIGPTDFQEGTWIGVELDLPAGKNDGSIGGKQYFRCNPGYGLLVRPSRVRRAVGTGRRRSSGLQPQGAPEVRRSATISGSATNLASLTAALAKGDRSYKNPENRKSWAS
UniProt P70211, residues 26-1447: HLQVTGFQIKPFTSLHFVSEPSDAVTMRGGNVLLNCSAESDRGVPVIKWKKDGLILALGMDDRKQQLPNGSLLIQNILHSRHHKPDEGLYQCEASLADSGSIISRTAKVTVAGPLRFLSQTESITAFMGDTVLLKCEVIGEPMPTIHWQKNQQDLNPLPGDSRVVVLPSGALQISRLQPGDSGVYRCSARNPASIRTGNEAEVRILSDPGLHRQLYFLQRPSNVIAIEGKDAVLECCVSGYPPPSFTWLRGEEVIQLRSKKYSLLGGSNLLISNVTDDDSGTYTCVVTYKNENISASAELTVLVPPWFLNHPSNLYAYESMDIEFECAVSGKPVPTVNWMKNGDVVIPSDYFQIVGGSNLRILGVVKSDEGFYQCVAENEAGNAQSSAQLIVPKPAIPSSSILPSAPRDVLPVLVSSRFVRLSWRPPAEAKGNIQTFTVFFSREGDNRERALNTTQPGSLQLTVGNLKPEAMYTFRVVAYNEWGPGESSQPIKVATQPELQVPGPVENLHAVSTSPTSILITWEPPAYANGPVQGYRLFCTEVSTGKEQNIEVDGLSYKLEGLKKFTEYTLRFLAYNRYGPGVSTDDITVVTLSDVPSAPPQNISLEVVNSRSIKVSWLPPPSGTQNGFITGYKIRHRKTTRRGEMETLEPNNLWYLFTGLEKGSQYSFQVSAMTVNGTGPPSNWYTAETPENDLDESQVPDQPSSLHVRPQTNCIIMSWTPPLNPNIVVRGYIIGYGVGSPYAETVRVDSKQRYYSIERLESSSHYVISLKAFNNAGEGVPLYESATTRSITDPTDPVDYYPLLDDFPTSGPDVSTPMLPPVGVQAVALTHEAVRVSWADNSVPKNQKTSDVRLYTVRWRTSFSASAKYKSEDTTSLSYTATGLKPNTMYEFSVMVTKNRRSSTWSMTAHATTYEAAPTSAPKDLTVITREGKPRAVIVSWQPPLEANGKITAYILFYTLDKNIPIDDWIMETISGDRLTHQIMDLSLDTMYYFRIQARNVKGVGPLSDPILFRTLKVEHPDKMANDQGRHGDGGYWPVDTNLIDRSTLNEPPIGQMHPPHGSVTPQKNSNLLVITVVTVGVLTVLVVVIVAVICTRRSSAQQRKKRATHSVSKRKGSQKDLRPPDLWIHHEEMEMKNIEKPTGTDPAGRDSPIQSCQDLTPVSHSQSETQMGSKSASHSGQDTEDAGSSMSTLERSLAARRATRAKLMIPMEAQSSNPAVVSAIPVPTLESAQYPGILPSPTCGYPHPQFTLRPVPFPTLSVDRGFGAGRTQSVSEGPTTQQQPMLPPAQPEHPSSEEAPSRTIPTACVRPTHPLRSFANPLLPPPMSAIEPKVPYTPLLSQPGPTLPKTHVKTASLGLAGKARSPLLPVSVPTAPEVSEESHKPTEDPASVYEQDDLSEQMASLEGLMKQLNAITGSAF

Experiments:
[1] = target: T1, GST-KIF13B^1532-1826 fusion protein (human) (UniProt Q9NQT8); assay: pull-down; GST fusion proteins (2-5 μg) immobilised on glutathione-Sepharose beads, incubated at 4°C overnight with lysates of transfected HEK293 cells (modified RIPA buffer, precleared with GST beads); immunoblot; only the target purified
T1 sequence: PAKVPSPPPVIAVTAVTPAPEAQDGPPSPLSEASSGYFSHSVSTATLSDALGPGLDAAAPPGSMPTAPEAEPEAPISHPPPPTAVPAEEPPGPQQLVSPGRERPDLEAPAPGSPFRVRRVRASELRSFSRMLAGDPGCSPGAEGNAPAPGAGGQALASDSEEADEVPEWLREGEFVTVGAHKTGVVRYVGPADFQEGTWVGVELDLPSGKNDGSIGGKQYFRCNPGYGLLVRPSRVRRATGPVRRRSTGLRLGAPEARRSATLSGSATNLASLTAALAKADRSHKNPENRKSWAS

[2] = target: T2, Myc-KIF13B^1532-1826 (human) (UniProt Q9NQT8); assay: co-IP; GFP-tagged Myo X constructs coexpressed with Myc-KIF13B or its deletion mutants in HEK293T cells; precipitated with anti-Myc antibody (IgG as control); modified RIPA lysis buffer, 4°C, immunoblot
T2 sequence: T1 sequence

Myc-KIF13B^1-557 (human) = target: T3, Myc-KIF13B^1-557 (human) (UniProt Q9NQT8); assay: as above
T3 sequence: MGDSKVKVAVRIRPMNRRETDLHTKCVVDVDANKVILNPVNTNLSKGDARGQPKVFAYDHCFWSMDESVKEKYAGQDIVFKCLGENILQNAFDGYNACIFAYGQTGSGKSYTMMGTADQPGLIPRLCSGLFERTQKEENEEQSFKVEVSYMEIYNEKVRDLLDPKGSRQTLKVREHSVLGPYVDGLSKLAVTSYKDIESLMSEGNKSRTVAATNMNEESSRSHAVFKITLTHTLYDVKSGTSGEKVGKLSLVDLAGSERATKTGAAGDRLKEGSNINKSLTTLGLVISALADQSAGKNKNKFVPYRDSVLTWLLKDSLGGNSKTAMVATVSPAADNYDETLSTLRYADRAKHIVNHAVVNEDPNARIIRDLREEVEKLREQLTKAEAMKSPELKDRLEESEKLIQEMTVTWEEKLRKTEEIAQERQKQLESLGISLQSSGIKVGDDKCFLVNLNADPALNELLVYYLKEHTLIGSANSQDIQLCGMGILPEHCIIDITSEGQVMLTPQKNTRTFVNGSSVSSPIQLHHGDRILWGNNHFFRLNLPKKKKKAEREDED

[3] = target: T4, Myc-KIF13B^990-1826 (human) (UniProt Q9NQT8); assay: as above
T4 sequence: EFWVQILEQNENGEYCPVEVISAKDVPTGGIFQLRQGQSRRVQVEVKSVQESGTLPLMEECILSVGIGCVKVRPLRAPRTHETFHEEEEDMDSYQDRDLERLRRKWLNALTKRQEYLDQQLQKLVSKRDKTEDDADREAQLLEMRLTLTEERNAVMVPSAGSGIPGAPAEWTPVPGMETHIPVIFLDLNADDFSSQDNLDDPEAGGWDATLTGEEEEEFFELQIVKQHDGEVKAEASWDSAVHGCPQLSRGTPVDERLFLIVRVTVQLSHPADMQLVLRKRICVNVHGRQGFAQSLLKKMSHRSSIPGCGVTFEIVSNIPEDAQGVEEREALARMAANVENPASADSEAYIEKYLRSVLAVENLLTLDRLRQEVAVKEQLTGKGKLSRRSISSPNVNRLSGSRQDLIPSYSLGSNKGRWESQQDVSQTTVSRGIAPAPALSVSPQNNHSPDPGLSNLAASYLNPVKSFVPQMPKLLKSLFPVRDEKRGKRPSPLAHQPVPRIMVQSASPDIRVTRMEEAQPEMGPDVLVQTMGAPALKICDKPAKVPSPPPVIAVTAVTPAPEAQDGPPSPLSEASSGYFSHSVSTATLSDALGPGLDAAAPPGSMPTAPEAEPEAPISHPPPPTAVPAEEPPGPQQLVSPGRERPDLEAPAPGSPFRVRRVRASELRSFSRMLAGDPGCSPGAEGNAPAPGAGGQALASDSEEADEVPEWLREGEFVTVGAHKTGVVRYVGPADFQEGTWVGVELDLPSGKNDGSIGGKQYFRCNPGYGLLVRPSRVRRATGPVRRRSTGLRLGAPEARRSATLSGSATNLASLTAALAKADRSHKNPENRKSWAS

[4] = target: T5, Myc-KIF13B^558-1826 (human) (UniProt Q9NQT8); assay: as above
T5 sequence: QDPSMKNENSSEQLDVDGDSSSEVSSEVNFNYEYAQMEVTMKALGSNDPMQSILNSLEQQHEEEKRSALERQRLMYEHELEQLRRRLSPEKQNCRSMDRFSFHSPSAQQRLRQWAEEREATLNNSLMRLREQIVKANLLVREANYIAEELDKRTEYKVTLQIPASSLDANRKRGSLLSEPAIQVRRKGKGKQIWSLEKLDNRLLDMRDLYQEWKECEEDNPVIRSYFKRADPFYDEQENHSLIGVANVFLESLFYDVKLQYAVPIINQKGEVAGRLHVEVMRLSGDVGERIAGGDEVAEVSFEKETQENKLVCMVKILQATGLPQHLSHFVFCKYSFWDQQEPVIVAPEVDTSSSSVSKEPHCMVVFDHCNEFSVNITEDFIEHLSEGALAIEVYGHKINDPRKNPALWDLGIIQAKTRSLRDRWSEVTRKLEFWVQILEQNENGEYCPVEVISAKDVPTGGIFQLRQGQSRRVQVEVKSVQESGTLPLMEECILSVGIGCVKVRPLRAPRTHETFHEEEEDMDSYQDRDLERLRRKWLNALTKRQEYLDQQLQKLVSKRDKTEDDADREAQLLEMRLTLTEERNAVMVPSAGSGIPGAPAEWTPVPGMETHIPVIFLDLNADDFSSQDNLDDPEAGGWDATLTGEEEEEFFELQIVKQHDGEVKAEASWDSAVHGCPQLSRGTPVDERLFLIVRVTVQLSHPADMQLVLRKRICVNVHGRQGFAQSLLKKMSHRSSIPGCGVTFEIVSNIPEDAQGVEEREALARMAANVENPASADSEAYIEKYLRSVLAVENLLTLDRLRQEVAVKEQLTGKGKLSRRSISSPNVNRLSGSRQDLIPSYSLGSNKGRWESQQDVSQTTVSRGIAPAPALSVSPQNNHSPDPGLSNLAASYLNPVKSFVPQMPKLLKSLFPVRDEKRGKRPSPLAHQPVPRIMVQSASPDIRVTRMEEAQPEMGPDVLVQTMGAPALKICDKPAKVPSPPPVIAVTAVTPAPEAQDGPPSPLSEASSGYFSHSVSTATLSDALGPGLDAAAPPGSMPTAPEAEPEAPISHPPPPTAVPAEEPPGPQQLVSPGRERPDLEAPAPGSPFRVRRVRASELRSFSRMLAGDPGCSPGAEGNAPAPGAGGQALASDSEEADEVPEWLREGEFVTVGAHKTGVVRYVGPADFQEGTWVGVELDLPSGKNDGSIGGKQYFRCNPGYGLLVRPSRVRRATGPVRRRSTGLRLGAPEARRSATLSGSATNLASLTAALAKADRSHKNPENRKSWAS

[5] = target: Myosin X, endogenous in cultured cortical neurons (mouse (endogenous in cultured cortical neurons)) (UniProt F8VQB6); assay: co-IP; endogenous proteins in lysates of cultured mouse cortical neurons treated with vehicle or Netrin-1 (500 ng/ml, 1 h); precipitated with anti-Myo X antibody (said for Fig. 6G); modified RIPA lysis buffer, 4°C, immunoblot

Molecule: GFP-hMyoX (GFP-tagged headless MyoX), expressed in HEK293 cells (from UniProt F8VQB6 860-2062) (domain or fragment)
binding [1]: binds
binding [2]: binds
binding (Myc-KIF13B^1-557 (human)): no binding
binding [3]: binds
binding [4]: binds

Molecule: KIF13B, endogenous in cultured cortical neurons (from UniProt E9Q4K7 1-1843)
binding [5]: binds

Molecule: GFP-hMyoX^ΔPH2 (from UniProt F8VQB6 860-2062) (domain or fragment)
binding [1]: no binding

B1: GFP-Myo X^Ferm (domain or fragment, UniProt F8VQB6 1704-2048)
chain: MTSTVYCHGGGSCKITINSHTTAGEVVEKLIRGLAMEDSRNMFALFEYNGQVDKAIESRTIVADVLAKFEKLAATSEAGDAPWKFYFKLYCFLDTDSMPKDSVEFAFMFEQAHEAVIHGHHPAPEESLQVLAALRLQYLQGDYTPHTSIPPLEEVYSVQRLRARISQSTKTFTPYERLEKRRTSFLEGTLRRSFRTGSVVRQKAEEEQMLDMWIKEEVCSARTSIIDKWKKLQGMNQEQAMAKYMALIKEWPGYGSTLFDVECKEGGFPQELWLGVSADAVSVYKRGEGKPLEVFQYEHILSFGAPLANTYKIVVDERELLFETSEVVDVAKLMKAYISMIVKKR
binding [1]: no binding

Further lines, results first:

binding [1]: binds
Molecule: GFP-hMyoX (KK1225/6AA) (from UniProt F8VQB6 860-2062) (domain or fragment)

binding [1]: no binding
Molecule: GFP-hMyoX^ΔPH3 (from UniProt F8VQB6 860-2062) (domain or fragment)

binding [5]: binds
Molecule: Deleted in Colorectal Cancer (DCC), endogenous in cultured cortical neurons (from UniProt P70211 26-1447) (receptor)
